Weaker means in comparison with the reference protein, sequence or condition of that experiment. The exact form of at least one protein or probe is not confirmed. At least one verdict was read from the data and is not stated in words by the source.
Biological target: SF6 small terminase (GP1) DBD wild type (Bacillus phage SF6) (UniProt P68928)
Assay: SPR
Conditions: 20 mM HEPES, 150 mM KCl (300 mM in second ReDCaT), pH 7.0, +0.05% Tween 20 for SPR, ReDCaT 20 uM protein, AUC 20 C, recombinant protein, residues 1-68, protein details: C-terminal 3C site-His tag, cleaved, label: 5'-biotin strand 3
[1] = 300 mM KCl, no significant effect vs P14
[2] = 300 mM KCl, no increase vs P8, P9

Sequence	binding result (150 mM KCl)	also measured
GTAGAATGTTATAATGGATTTAATTGGCGG / CCGCCAATTAAATCCATTATAACATTCTACCCTACCCTACGTCCTCCTGC / GCAGGAGGACGTAGGGTAGG [P3]	binds	–
TATTTGGGTGCTTTTTTGTTGTATAATTAG / CTAATTATACAACAAAAAAGCACCCAAATACCTACCCTACGTCCTCCTGC / GCAGGAGGACGTAGGGTAGG [P5]	binds	–
CCAAAACAGGAAAGATTTATTGAAGAGTAT / ATACTCTTCAATAAATCTTTCCTGTTTTGGCCTACCCTACGTCCTCCTGC / GCAGGAGGACGTAGGGTAGG [F6 (S6)]	binds	–
TTGGGGCAGAAAACTTGCAGAAACCGCACGTCCG / CGGACGTGCGGTTTCTGCAAGTTTTCTGCCCCAACCTACCCTACGTCCTCCTGC / GCAGGAGGACGTAGGGTAGG [A15T (cumulative)]	–	binding result [1]: binds more weakly
GGCCAGGAAAAGGAACAGGTGCTCATGGGA / TCCCATGAGCACCTGTTCCTTTTCCTGGCCCCTACCCTACGTCCTCCTGC / GCAGGAGGACGTAGGGTAGG [F15 (S15)]	binds	–
TTGGGGCAGAAAACATGCAGAAACCGCACGTCCG / CGGACGTGCGGTTTCTGCATGTTTTCTGCCCCAACCTACCCTACGTCCTCCTGC / GCAGGAGGACGTAGGGTAGG [C8A (cumulative)]	–	binding result [1]: binds more weakly
TTCAGATATGAGGTTCAAATATAGTTTTAA / TTAAAACTATATTTGAACCTCATATCTGAACCTACCCTACGTCCTCCTGC / GCAGGAGGACGTAGGGTAGG [P7]	binds	–
GCCGAGAACATGCAAAAACCGCACGTCCGC / GCGGACGTGCGGTTTTTGCATGTTCTCGGCCCTACCCTACGTCCTCCTGC / GCAGGAGGACGTAGGGTAGG [P14 (boxC)]	binds	binding result (300 mM KCl, not elevated): binds more weakly
AAATCCTCCAAGCTAACGAGGTTTTGGAGC / GCTCCAAAACCTCGTTAGCTTGGAGGATTTCCTACCCTACGTCCTCCTGC / GCAGGAGGACGTAGGGTAGG [F13 (S13)]	binds	–
AGATTGGCACAAATGGACAAGAAAAGAATC / GATTCTTTTCTTGTCCATTTGTGCCAATCTCCTACCCTACGTCCTCCTGC / GCAGGAGGACGTAGGGTAGG [P16]	binds	–
AAAAGCGGCGGTTATATCTTGTAGCGTAGA / TCTACGCTACAAGATATAACCGCCGCTTTTCCTACCCTACGTCCTCCTGC / GCAGGAGGACGTAGGGTAGG [P2]	binds	–
TTGGGGCCGAGAACATGCAGAAACCGCACGTCCG / CGGACGTGCGGTTTCTGCATGTTCTCGGCCCCAACCTACCCTACGTCCTCCTGC / GCAGGAGGACGTAGGGTAGG [C4G (cumulative)]	–	binding result [1]: binds more weakly
ACTCGAAAGATTTGTTGATGAATATTTCAT / ATGAAATATTCATCAACAAATCTTTCGAGTCCTACCCTACGTCCTCCTGC / GCAGGAGGACGTAGGGTAGG [P10]	binds	–
CGTTTGAAGGAAATAAACGAGAAGAAAATC / GATTTTCTTCTCGTTTATTTCCTTCAAACGCCTACCCTACGTCCTCCTGC / GCAGGAGGACGTAGGGTAGG [F12 (S12)]	binds	–
TACTAAAGCGGCTATTGCGGCAGGATATAG / CTATATCCTGCCGCAATAGCCGCTTTAGTACCTACCCTACGTCCTCCTGC / GCAGGAGGACGTAGGGTAGG [F8 (S8, boxB)]	binds	binding result (300 mM KCl, not elevated): binds more weakly
GGCGGAATAACACAGAGAGGCACCCTATTT / AAATAGGGTGCCTCTCTGTGTTATTCCGCCCCTACCCTACGTCCTCCTGC / GCAGGAGGACGTAGGGTAGG [P4]	binds	–
AAGCGGCTATTGCGGCTGGTTATAGTAAAA / TTTTACTATAACCAGCCGCAATAGCCGCTTCCTACCCTACGTCCTCCTGC / GCAGGAGGACGTAGGGTAGG [P12 (boxB)]	binds	binding result (300 mM KCl, not elevated): binds more weakly
TTGGGGCCGAAAACATGCAGAAACCGCACGTCCG / CGGACGTGCGGTTTCTGCATGTTTTCGGCCCCAACCTACCCTACGTCCTCCTGC / GCAGGAGGACGTAGGGTAGG [G11A (cumulative)]	–	binding result [1]: binds more weakly
ATTAGGTTTATATAAGGTTTTAATTAGGTT / AACCTAATTAAAACCTTATATAAACCTAATCCTACCCTACGTCCTCCTGC / GCAGGAGGACGTAGGGTAGG [F3 (S3)]	binds	–
TCCGCGCACGTATCGAGGAAAGATTGGCAC / GTGCCAATCTTTCCTCGATACGTGCGCGGACCTACCCTACGTCCTCCTGC / GCAGGAGGACGTAGGGTAGG [P15 (boxC)]	binds	binding result (300 mM KCl, not elevated): binds more weakly

Sequence	binding result (150 mM KCl)	also measured
GGCGGAATAACACAGAGAGGTACCCTATTT / AAATAGGGTACCTCTCTGTGTTATTCCGCCCCTACCCTACGTCCTCCTGC / GCAGGAGGACGTAGGGTAGG [F1 (S1)]	binds	–
CCGGCTGATGTTTTGAAAGAAGCGAAAAAG / CTTTTTCGCTTCTTTCAAAACATCAGCCGGCCTACCCTACGTCCTCCTGC / GCAGGAGGACGTAGGGTAGG [P1]	binds	–
TTGGGGCAGAAAACTTACAGAAACCAGCTA / TAGCTGGTTTCTGTAAGTTTTCTGCCCCAACCTACCCTACGTCCTCCTGC / GCAGGAGGACGTAGGGTAGG [F10 (S10)]	binds	–
TTTCTATGGGAGAAGTAAAGGGGAAATGGACGCCCAA / TTGGGCGTCCATTTCCCCTTTACTTCTCCCATAGAAACCTACCCTACGTCCTCCTGC / GCAGGAGGACGTAGGGTAGG [P8_P9]	–	binding result [2]: binds more weakly
TTTTATGAAAGAACCTAAACTATCTCCAAA / TTTGGAGATAGTTTAGGTTCTTTCATAAAACCTACCCTACGTCCTCCTGC / GCAGGAGGACGTAGGGTAGG [F5 (S5)]	binds	–
GGAAAAGGAACAGGTGCTCATGGGAATTGG / CCAATTCCCATGAGCACCTGTTCCTTTTCCCCTACCCTACGTCCTCCTGC / GCAGGAGGACGTAGGGTAGG [F16 (S16)]	binds	–
TAAAAAGTCTGCTTCGACTATTGCGGCCGA / TCGGCCGCAATAGTCGAAGCAGACTTTTTACCTACCCTACGTCCTCCTGC / GCAGGAGGACGTAGGGTAGG [P13 (boxB)]	binds	binding result (300 mM KCl, not elevated): binds more weakly
TTTAAGGAGGTTTTTTCTATGGGAGAAGTA / TACTTCTCCCATAGAAAAAACCTCCTTAAACCTACCCTACGTCCTCCTGC / GCAGGAGGACGTAGGGTAGG [P8]	binds	binding result (300 mM KCl, average density): binds more weakly
TTGGGGCAGAAAACTTACAGAAACCGCACGTCCG / CGGACGTGCGGTTTCTGTAAGTTTTCTGCCCCAACCTACCCTACGTCCTCCTGC / GCAGGAGGACGTAGGGTAGG [G17A (cumulative)]	–	binding result [1]: binds more weakly
AGCTATCCGCGCACGTATTGACGCTCGTTT / AAACGAGCGTCAATACGTGCGCGGATAGCTCCTACCCTACGTCCTCCTGC / GCAGGAGGACGTAGGGTAGG [F11 (S11, boxC)]	binds	binding result (300 mM KCl, not elevated): binds more weakly
TATAGTAAAAATTCCGCGTCTGCTATTGGG / CCCAATAGCAGACGCGGAATTTTTACTATACCTACCCTACGTCCTCCTGC / GCAGGAGGACGTAGGGTAGG [F9 (S9)]	binds	–
AAGTAAAGGGGAAATGGACGCCCAAACTCG / CGAGTTTGGGCGTCCATTTCCCCTTTACTTCCTACCCTACGTCCTCCTGC / GCAGGAGGACGTAGGGTAGG [P9]	binds	binding result (300 mM KCl, average density): binds more weakly
TTCATAAACGGCATGAATGCAACAAAAGCG / CGCTTTTGTTGCATTCATGCCGTTTATGAACCTACCCTACGTCCTCCTGC / GCAGGAGGACGTAGGGTAGG [P11]	binds	–
AGTATTTTATAAACGACATGAACGCTACTA / TAGTAGCGTTCATGTCGTTTATAAAATACTCCTACCCTACGTCCTCCTGC / GCAGGAGGACGTAGGGTAGG [F7 (S7)]	binds	–
TTTTATGAAAGAAGGGGAAATGGACGCCCAAA / TTTGGGCGTCCATTTCCCCTTCTTTCATAAAACCTACCCTACGTCCTCCTGC / GCAGGAGGACGTAGGGTAGG [F5_P9]	–	binding result [2]: binds more weakly
TTGCGGCCGAGAACATGCAGAAACCGCACGTCCG / CGGACGTGCGGTTTCTGCATGTTCTCGGCCGCAACCTACCCTACGTCCTCCTGC / GCAGGAGGACGTAGGGTAGG [A20G]	–	binding result [1]: binds more weakly
TATTTGGGTGCTTTTTTGTTGTATAATTAG / CTAATTATACAACAAAAAAGCACCCAAATACCTACCCTACGTCCTCCTGC / GCAGGAGGACGTAGGGTAGG [F2 (S2), same sequence as P5]	binds	binding result (300 mM KCl, not elevated): binds more weakly
TTGCGGCCGAGAACATGCAAAAACCGCACGTCCG / CGGACGTGCGGTTTTTGCATGTTCTCGGCCGCAACCTACCCTACGTCCTCCTGC / GCAGGAGGACGTAGGGTAGG [P14_L]	–	binding result (300 mM KCl, parent of P14 series): binds more weakly
AGGTTCAAATATAGTTAGGAGGGGATTTTA / TAAAATCCCCTCCTAACTATATTTGAACCTCCTACCCTACGTCCTCCTGC / GCAGGAGGACGTAGGGTAGG [F4 (S4)]	binds	–

From PMC4737164, “DNA recognition for virus assembly through multiple sequence-independent interactions with a helix-turn-helix motif”
